{"source": "patent US7875260B2", "about": "“Imaging agents for functional imaging of lymphatic structures” (Baylor College of Medicine, priority 2006, dated 2011)", "tested_on": "swine lymph vessels", "experiment": "NIR fluorescence imaging of ICG lymph propulsion in swine", "assay_type": "in vivo", "key": {"[1]": {"settings": "leg lymph vessel, four hours after injection on the leg"}}}
{"smiles": "CC1(C)C(/C=C/C=C/C=C/C=C2\\N(CCCCS(=O)(=O)O)c3ccc4ccccc4c3C2(C)C)=[N+](CCCCS(=O)(=O)[O-])c2ccc3ccccc3c21", "note": "[ICG, indocyanine green]", "values": [{"measurement": "frequency of ICG pulses passing a fixed location on the vessel", "setting": "abdominal lymph vessels, 200 μl injection of 32 μM ICG", "result": "0.5-1.3 pulses/min"}, {"measurement": "duration of lymph flow from injection site to middle iliac node", "setting": "hindlimb, intradermal 200 μl of 32 μM ICG, duration of anesthesia", "result": 4, "unit": "h"}, {"measurement": "rate of propelling ICG packets", "setting": "[1]", "result": 1.3, "unit": "pulses/min"}, {"measurement": "velocity of ICG packets", "setting": "[1]", "result": "0.62 ± 0.23", "unit": "cm/s"}, {"measurement": "average interval between fluorescence intensity peaks in ROI", "setting": "second abdominal afferent lymph vessel, 7 minutes of imaging", "result": 46, "unit": "s"}]}
